pKd: −log10 of the molar value. The exact form of at least one protein or probe is not confirmed. Where a protein sequence is shown, tags need not be part of it.
Assays:
[1] = tested on: T1, soluble ST2 (sST2, IL1RL1 soluble isoform) (Homo sapiens); experiment: EMSA; settings: strong binding; room temperature 30 min; single-stranded DNA
T1 sequence (looked up, limits assumed): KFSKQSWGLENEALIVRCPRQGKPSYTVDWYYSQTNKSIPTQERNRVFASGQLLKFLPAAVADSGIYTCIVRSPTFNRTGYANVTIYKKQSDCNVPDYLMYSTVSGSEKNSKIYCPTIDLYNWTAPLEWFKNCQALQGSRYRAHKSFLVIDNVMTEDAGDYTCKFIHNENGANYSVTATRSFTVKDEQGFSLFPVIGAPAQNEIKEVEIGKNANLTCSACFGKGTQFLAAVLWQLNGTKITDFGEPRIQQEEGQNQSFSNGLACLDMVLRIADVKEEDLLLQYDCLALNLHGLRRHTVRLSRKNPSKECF

[2] = tested on: T1, soluble ST2 (sST2, IL1RL1 soluble isoform) (Homo sapiens); experiment: binding assay; settings: fiber-optic fluorescence, sST2 immobilised; 137 mM NaCl, 2.7 mM KCl, phosphate; label: Cy5.5 (affinity assay); single-stranded DNA

Sequence | binding result [1] | pKd [2]
TCCATGCACTCGCGCTACCGGCGTGCCCGTAGATC [Apt9] | binds | 
TCCATTCACTCGACCGCTGACGCGGGTGTCGTTTT [Apt6] |  | 6.76
TCCATGCACTCGCCCTTGAAAGGGTTCCCTCCGTT [Apt7] | binds | 
TCCATTCACTCGCAGCGGGGTCGCGTGAGGCGCAA [Apt10] | binds | 
CCTCCATCCACTCGGCGCAACGCCGGGGCTCGGCC [Apt5] |  | 6.73
